Assay [1] deals with T1, citrine-PRMT2 (in HEK293 cells) (UniProt P55345).
T1 sequence: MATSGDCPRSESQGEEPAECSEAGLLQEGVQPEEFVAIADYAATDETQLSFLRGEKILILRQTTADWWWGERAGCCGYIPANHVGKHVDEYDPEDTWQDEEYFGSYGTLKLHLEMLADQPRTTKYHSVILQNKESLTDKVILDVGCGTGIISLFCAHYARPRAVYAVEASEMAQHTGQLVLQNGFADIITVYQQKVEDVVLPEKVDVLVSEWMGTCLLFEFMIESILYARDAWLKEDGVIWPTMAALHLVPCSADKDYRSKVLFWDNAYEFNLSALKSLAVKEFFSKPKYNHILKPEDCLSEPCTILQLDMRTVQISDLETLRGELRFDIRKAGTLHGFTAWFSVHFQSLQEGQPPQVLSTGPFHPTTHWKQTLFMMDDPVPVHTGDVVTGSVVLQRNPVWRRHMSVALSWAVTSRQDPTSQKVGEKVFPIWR
Briefly: co-IP; HEK293 cells co-transfected with Myc-MOZ and citrine-PRMT2, 24 h; lysis in 10 mM Tris/HCl pH 7.5, 150 mM NaCl, 0.5 mM EDTA, 0.5% NP40; GFP-Trap magnetic beads 1 h at 4 °C (Myc-Trap also named).

Chains of the proteins cited; added tags and fusions are not shown.
UniProt Q92794: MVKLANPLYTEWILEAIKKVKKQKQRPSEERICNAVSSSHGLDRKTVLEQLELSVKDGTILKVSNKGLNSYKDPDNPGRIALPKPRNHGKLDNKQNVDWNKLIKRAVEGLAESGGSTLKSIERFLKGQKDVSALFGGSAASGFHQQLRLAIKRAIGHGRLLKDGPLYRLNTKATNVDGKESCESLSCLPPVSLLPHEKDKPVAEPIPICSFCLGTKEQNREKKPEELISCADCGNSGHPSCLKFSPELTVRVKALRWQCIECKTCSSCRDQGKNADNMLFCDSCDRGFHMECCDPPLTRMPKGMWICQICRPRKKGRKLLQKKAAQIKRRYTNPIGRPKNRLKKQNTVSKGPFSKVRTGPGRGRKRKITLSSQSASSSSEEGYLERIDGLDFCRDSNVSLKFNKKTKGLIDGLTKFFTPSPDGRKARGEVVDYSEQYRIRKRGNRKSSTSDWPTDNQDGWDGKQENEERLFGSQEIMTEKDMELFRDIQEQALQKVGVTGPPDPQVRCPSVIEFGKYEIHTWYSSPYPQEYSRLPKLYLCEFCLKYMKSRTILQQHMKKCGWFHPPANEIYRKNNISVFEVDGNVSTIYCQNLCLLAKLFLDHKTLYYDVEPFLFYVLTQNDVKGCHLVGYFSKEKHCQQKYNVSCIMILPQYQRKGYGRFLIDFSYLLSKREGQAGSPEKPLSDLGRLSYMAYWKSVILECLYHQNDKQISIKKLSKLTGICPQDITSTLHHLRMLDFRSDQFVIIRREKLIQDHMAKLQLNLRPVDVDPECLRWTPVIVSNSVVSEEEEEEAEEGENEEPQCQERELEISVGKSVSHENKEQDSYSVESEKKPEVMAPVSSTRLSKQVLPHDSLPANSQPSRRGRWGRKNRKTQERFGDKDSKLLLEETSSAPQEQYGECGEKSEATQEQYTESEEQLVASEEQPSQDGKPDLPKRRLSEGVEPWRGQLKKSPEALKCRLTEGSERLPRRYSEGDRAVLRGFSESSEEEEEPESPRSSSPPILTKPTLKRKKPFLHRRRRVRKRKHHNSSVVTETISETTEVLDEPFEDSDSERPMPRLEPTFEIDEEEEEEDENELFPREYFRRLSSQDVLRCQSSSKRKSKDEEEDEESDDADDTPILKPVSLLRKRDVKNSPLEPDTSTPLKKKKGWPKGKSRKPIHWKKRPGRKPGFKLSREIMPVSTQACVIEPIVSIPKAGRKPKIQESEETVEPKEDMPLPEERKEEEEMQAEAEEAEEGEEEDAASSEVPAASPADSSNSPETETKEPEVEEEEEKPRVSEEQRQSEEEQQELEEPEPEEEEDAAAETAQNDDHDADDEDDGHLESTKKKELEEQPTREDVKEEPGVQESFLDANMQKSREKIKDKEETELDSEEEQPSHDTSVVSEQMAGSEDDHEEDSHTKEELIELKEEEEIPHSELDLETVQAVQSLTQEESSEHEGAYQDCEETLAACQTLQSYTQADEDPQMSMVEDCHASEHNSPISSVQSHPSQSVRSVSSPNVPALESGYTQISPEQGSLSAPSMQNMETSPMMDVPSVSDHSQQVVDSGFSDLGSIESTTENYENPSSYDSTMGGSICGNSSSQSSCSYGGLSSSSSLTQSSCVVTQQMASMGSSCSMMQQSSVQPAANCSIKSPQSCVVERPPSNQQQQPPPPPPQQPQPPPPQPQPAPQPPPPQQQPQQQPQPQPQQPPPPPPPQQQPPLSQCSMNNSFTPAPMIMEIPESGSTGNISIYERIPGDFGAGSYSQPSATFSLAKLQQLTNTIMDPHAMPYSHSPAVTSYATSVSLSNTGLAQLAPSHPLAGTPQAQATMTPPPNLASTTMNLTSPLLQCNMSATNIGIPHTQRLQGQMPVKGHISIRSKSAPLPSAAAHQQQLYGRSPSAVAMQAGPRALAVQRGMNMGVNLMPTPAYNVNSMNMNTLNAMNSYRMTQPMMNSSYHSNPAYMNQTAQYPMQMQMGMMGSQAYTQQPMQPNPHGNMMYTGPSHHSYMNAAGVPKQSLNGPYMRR
UniProt P40763: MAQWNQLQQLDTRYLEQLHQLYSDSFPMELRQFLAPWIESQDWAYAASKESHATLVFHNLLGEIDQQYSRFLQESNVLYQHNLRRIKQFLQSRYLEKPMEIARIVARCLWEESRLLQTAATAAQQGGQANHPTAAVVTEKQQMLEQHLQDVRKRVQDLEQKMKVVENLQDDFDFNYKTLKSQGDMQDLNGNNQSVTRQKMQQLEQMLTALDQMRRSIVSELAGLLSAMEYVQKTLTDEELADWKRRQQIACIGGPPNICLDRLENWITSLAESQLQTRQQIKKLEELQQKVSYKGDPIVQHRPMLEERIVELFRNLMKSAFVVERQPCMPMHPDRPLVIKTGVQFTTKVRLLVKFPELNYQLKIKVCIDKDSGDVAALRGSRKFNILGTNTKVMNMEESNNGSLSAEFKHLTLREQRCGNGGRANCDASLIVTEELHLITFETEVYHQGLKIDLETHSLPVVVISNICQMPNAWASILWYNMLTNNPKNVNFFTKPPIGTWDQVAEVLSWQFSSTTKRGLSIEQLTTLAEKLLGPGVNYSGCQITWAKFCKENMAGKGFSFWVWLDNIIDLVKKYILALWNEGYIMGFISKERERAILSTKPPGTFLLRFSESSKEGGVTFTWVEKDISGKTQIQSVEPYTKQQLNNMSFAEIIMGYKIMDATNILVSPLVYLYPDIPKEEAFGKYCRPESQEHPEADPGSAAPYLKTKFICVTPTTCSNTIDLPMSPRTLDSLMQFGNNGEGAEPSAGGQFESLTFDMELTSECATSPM

The target in assay [2] is T2, citrine-PRMT2 (overexpressed in HL-60 cells) (UniProt P55345).
T2 sequence: T1 sequence
Briefly: co-IP; HL-60 cells overexpressing citrine-PRMT2; lysis in 10 mM Tris/HCl pH 7.5, 150 mM NaCl, 0.5 mM EDTA, 0.5% NP40; GFP-Trap magnetic beads 1 h at 4 °C.

Experimental findings from PMC11190286 are described below.

No constants are given. Whether binding was seen depends on the method and setting. In cells and extracts the contact can be indirect. Some entries that bind do so weakly or less than the wild type.

With Myc-MOZ (from UniProt Q92794 1-2004), the binding result in assay [1] is listed as “binds”.

With STAT3 (from UniProt P40763 1-770), the binding entry in assay [2] was “no binding”.
